Measurements published in PubChem BioAssay AID540275 (National Center for Advancing Translational Sciences (NCATS), 2011).
The whole screen tested about 320,000 compounds, of which about 620 (0.19%) were called active. The inconclusive results got no clear call from the source; some entries with a clear call stand among them for comparison. Rule as the data show it: active = activation above about 80%; inconclusive = between about 30% and that limit; inactive = weaker than that.

The chains behind the UniProt entries cited, without tags or fusion partners.
UniProt Q8NER1, whole entry, looked up: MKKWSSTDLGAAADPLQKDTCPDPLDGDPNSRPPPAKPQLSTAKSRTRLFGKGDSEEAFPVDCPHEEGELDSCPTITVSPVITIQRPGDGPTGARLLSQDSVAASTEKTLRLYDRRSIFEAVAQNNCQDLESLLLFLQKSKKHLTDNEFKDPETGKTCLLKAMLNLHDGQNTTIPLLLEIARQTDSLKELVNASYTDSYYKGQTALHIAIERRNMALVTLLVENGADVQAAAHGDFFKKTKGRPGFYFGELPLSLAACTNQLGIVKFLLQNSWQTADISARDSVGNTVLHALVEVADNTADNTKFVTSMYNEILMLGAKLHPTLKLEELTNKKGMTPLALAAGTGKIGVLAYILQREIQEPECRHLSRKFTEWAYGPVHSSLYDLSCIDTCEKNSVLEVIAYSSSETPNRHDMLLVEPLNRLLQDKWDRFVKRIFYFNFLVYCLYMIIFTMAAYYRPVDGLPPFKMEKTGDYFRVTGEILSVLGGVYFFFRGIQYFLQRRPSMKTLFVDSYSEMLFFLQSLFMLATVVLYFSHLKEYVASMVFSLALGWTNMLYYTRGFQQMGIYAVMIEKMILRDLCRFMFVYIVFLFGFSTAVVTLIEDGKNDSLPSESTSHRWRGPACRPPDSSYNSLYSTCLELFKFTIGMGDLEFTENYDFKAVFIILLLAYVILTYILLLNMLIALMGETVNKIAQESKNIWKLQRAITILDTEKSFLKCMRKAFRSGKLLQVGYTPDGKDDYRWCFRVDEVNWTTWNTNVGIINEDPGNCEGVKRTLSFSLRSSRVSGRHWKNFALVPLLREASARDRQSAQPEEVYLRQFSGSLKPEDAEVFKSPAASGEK

Target: Transient receptor potential cation channel subfamily V member 1 (Homo sapiens) (UniProt Q8NER1)
Assay: HTS Assay for Compounds that Act as Agonists of the Vanilloid Receptor 1; as to activation: 0% is about no effect
Conditions: TRPV1-expressing cells, Fluo-8 calcium influx, agonist mode; at 8.33 µM, active compounds read high
How it was run: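 TRPV1-expressing cells were cultured overnight at 35.5C and loaded with Fluo-8 calcium dye for 40 to 90 min at room temperature. After a 10 s baseline, compound was added and calcium influx was read kinetically for 3 min (ex 480/em 520 nm).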

| SMILES | activation |
| --- | --- |
| O=C(NCc1ccccc1)C1CCCN(c2ncnc3c2nc2n3CCCCC2)C1 (centres undefined) | inconclusive: 78.6% |
| COc1cc(NC(=O)C(C)Oc2ccccc2)c(OC)cc1NC(=O)c1ccccc1 (centres undefined) | inconclusive: 34.2% |
| COc1cc(NS(=O)(=O)c2ccc(NC(=S)NC(=O)CC(C)C)cc2)nc(OC)n1 | inactive: -1.78% |
| Cc1c(O)ccc2c(-c3ccccc3)cc(=O)oc12 | inconclusive: 42.8% |
| O=[N+]([O-])c1cccc(-c2n[nH]c(=S)n2-c2ccccc2)c1 | inactive: -0.374% |
| Cc1ccccc1OCC(=O)Nc1ccccc1N1CCOCC1 | inconclusive: 32.2% |
| CCCCC[C@H]1CN(Cc2ccccc2)C(=O)[C@@H]1CC(=O)NCc1ccccc1 | inconclusive: 57.9% |
| CC(C)(C)C(=O)NC(=S)NNC(=O)c1ccc(-c2ccccc2)cc1 | inconclusive: 31.7% |
| CCOC(=O)c1c(C)[nH]c(C(=O)OCC(=O)NCc2ccc(OC)c(OC)c2)c1C | inconclusive: 45.6% |
| CC(C)CCOc1ccc(NC(=O)C2OC3OC(C)(C)OC3C3OC(C)(C)OC23)cc1 (centres undefined) | inactive: -3.08% |
| Cc1nc2ccccc2c(=O)n1/N=C/c1ccc(OC(F)F)cc1 | inconclusive: 56.5% |
| Cc1ccc(S(=O)(=O)N2CCC(=O)N(CCOCc3cccc(C(F)(F)F)c3)CC2)cc1 | inconclusive: 31.2% |
| CCOc1ccc(/C=C2\SC(=O)N(CCNC(=O)C3COc4ccccc4O3)C2=O)cc1OC (centres undefined) | inactive: -4.85% |
| c1ccc(NC2=NCCN2CCC2CCCCC2)cc1 | inactive: -1.52% |
| C/C(CC(=O)Nc1ccc(N(C)C)cc1)=N\NC(=O)c1ccccn1 | inconclusive: 34.6% |
| COc1cc(OC)cc(C(=O)NCCSc2c[nH]c3ccccc23)c1 | inconclusive: 45% |
| O=C(NCc1ccccc1Cl)c1ccc(CS(=O)(=O)c2ccccc2)o1 | inactive: 4.99% |
| CSCCC(NC(=O)c1ccccc1)C(=O)N1CCN(Cc2ccc(Cl)cc2)CC1 (centres undefined) | inconclusive: 33.1% |
| CCc1ccccc1NC(=O)CN(C)S(=O)(=O)c1ccc(-c2ccc(=O)[nH]n2)s1 | inconclusive: 33% |
| O=C(O)CCC(=O)NCc1cn(-c2ccccc2)nc1-c1cccc(Br)c1 | inconclusive: 34.4% |
| Cc1cccc(CC(=O)NCCn2c(C)cc3ccccc32)c1 | inconclusive: 59.2% |
| C=CCOC(=O)C1C(=O)CC(C)(O)C(C(=O)OCC=C)C1c1ccc(OCC)cc1 (centres undefined) | inconclusive: 36.9% |
| CC(C)CCN1CCC(Cc2ccccc2)(NC(=O)c2ccccc2)C1=O (centres undefined) | inconclusive: 45.2% |

Four records drawn at random from the list so far, as already listed:

| SMILES | activation |
| --- | --- |
| Cc1ccccc1OCC(=O)Nc1ccccc1N1CCOCC1 | inconclusive: 32.2% |
| C/C(CC(=O)Nc1ccc(N(C)C)cc1)=N\NC(=O)c1ccccn1 | inconclusive: 34.6% |
| CCOC(=O)c1c(C)[nH]c(C(=O)OCC(=O)NCc2ccc(OC)c(OC)c2)c1C | inconclusive: 45.6% |
| CC(C)(C)C(=O)NC(=S)NNC(=O)c1ccc(-c2ccccc2)cc1 | inconclusive: 31.7% |

Next entries.

| SMILES | activation |
| --- | --- |
| CC(C)Oc1ccc(S(=O)(=O)N2CCOCC2)cc1NC(=O)C1CCC1 | inconclusive: 32.7% |
| CCc1nnc(NC(=O)C2Cc3ccccc3CN2S(=O)(=O)c2c(C)c(C)cc(C)c2C)s1 (centres undefined) | inactive: 5.46% |
| COc1ccc(CNC(=O)c2ccc(Br)s2)cc1OC | inconclusive: 58.9% |
| COC(=O)c1[nH]c2ccc(C)cc2c1NC(=O)NC1CCCCC1 | inconclusive: 39.1% |
| COc1cc2c(cc1OC)C1O[C@](CCCCN3C(=O)c4ccccc4C3=O)(C2)OC2=C1C(=O)OC1(CCCCC1)C2 | inactive |
| Cc1ccc(NC(=O)N2C(=O)C3(OCCO3)c3ccccc32)cc1 | inconclusive: 30.7% |
| O=C(Nc1cccc(C(F)(F)F)c1)N1CCC(c2nc(-c3ccc(F)cc3)no2)CC1 | inconclusive: 56.8% |
| Cc1cc(C)c2nc(-c3ccccn3)cc(C(=O)NCc3cc(C)n(C)n3)c2c1 | active: 87.5% |
| CCOC(=O)c1c(NC(=O)c2nn(CC)cc2Br)sc(C)c1C | inactive: 11.8% |
| CCOC(=O)[C@H]1[C@H]2COc3cc(OC)ccc3[C@@H]2N2C(=O)c3ccc(C)cc3NC(=O)[C@@]12C | active: 82.2% |
| COC(=O)/C=C1\N/C(=N/c2nc(C)c3cc(OC)ccc3n2)NC1=O | inactive: -1.33% |
| O=c1cc(-c2c(O)c3ccccc3n(Cc3ccccc3)c2=O)[nH][nH]1 | inactive: 1.42% |
| COc1cccc(-n2nnnc2S(C)(=O)=O)c1 | inactive: 1.56% |
| CCc1ccc2[nH]c(=O)c(CN(CCCN3CCOCC3)C(=O)Nc3ccccc3)cc2c1 | inactive: 7.86% |
| CC1CN(CCCCN2C(=O)c3ccccc3C2=O)CC(C)O1 (centres undefined) | inactive: -5.72% |
| CCCOc1ccc(N2C(=O)CC(SCc3nc4ccccc4[nH]3)C2=O)cc1 (centres undefined) | inconclusive: 34.5% |
| CN(C)c1ccc2c(c1)OC(N)=C(C#N)C2c1cccc(F)c1 (centres undefined) | inconclusive: 49.9% |
| CC(=O)Nc1c(S(=O)(=O)c2ccccc2)c2nc3ccccc3nc2n1Cc1ccccc1 | inactive: 7.97% |
| O=C(Nc1ccc(Nc2ccccc2)cc1)c1ccc(F)cc1 | inconclusive: 50% |
| O=C(NCc1cccnc1)c1cc(Sc2cccc(Cl)c2)nc2ccccc12 | inconclusive: 51.6% |
| Clc1ccc2c(c1)C=Nc1c(NCc3ccccc3)ncnc1O2 | inconclusive: 34.6% |
| CCC(C)Sc1nc2c(c(=O)[nH]c(=O)n2C)n1CC(O)COc1ccccc1C (centres undefined) | inactive: 1.31% |
| CCCCC(O)(c1ccccc1)C(CN1CCOCC1)c1ccccc1 (centres undefined) | inconclusive: 35.2% |

Already shown: entries from further up.

| SMILES | activation |
| --- | --- |
| COc1cccc(-n2nnnc2S(C)(=O)=O)c1 | inactive: 1.56% |
| CCc1ccc2[nH]c(=O)c(CN(CCCN3CCOCC3)C(=O)Nc3ccccc3)cc2c1 | inactive: 7.86% |

Following part

| SMILES | activation |
| --- | --- |
| CCOc1ccccc1N1C(=O)CN(Cc2ccc(OC)c(OC)c2)C1=S | inconclusive: 52.7% |
| c1ccc(Cc2nnc3sc(Nc4ccccc4)nn23)cc1 | inconclusive: 53.2% |
| CC(OC(=O)CC1CCCCC1)C(=O)Nc1ccc(F)cc1 (centres undefined) | active: 83.2% |
| Nc1ncnc(Sc2ccccc2)c1[N+](=O)[O-] | inactive: -4.25% |
| CC1=NN(C(N)=S)C(=O)C1N=Nc1c(Br)cc(Br)cc1Br (centres undefined) | inactive: -3.89% |
| Clc1ccc2c(N/N=C/c3ccccc3Br)ccnc2c1 | inconclusive: 37.3% |
| O=C(Nc1ccc(S(=O)(=O)N2CCOCC2)cc1)c1ccc2ncsc2c1 | inconclusive: 58.5% |
| CCOC(=O)c1sc(NC(=O)Nc2ccccc2Cl)cc1C | inconclusive: 78.1% |
| O=C(NCc1ccccc1)N1CCN(c2ccccc2F)CC1 | inconclusive: 39.1% |
| CCCCNC(=S)NCC(c1ccccc1)c1c[nH]c2ccccc12 (centres undefined) | inconclusive: 40.5% |
| O=C(Cn1ncc2ccccc21)N1CCN(c2cccc(C(F)(F)F)c2)CC1 | inconclusive: 55.6% |
| Cc1ccc(NC(=O)CN2C(=O)CSc3ccc(S(=O)(=O)N4CCCCC4)cc32)cc1 | inconclusive: 50% |
| C/C=C/Cn1cccc(C(=O)Nc2ccc(OC)cc2)c1=O | inconclusive: 71.4% |
| Cc1cnc(C(=O)Nc2ccc(OC(F)(F)F)cc2)cn1 | inconclusive: 65.9% |
| CC(c1ccccc1)C(Cc1nc2ccccc2[nH]1)c1nc2ccccc2[nH]1 (centres undefined) | inconclusive: 38.5% |
| CCc1ccc(NC(=O)c2cc(C(C)C)on2)cc1 | active: 82.1% |
| COc1ccc2nc(NC(=O)c3cccc(OCc4c(C)noc4C)c3)sc2c1 | inactive: 2.52% |
| Cc1ccc(NC(=S)NNC(=O)CSc2nnc(-c3ccc(Cl)cc3)n2C2CCCCC2)cc1 | inactive: -1.59% |
| COc1ccccc1NS(=O)(=O)c1cccc(C(=O)NN)c1 | inactive: 0.651% |
| Cc1nc(-c2ccc(NC(=O)c3ccc(Br)o3)cc2)cs1 | inconclusive: 59.2% |
| CC(=O)c1cccc(NC(=O)c2ccc3c(Cl)c4c(nc3c2)CCCC4)c1 | inconclusive: 57.4% |
| CS(=O)(=O)NCc1ccc(C(=O)NCCOc2ccccc2)cc1 | inconclusive: 40.1% |
| Cc1cccc(NC(=O)N2CCN(Cc3ccc(Cl)cc3)CC2)c1 | inconclusive: 40% |

| SMILES | activation |
| --- | --- |
| O=C(Nc1cccc(S(=O)(=O)N2CCCCCC2)c1)c1ccc2c(c1)OCO2 | inconclusive: 52.1% |
| O=C(Nc1nc2ccccc2[nH]1)c1ccc(Cl)c([N+](=O)[O-])c1 | inactive: -2.51% |
| Cc1cccc(C(=O)NC(NCc2ccco2)C(Cl)(Cl)Cl)c1 (centres undefined) | inactive: 3.71% |
| OCCC1CN(Cc2cccn2-c2cccnc2)CCN1C1CCCC1 (centres undefined) | inactive: 3.04% |
| Cc1nnsc1C(=O)Nc1ccc(S(=O)(=O)N2CCC(C)CC2)cc1 | inconclusive: 31.3% |
| CN(CCCC1CCCC1)C(=O)c1cc(COc2ccc(F)c(F)c2)on1 | inconclusive: 34% |
| Cc1cc(C)nc(N(C#N)CN2C(=O)c3ccccc3S2(=O)=O)n1 | inactive: -0.471% |
| Cc1ccc(/C=C/C(=O)NC2=NCCS2)cc1 | inconclusive: 36.1% |
| Cc1cccc2sc(NC(=O)c3ccc(NS(=O)(=O)c4cccs4)cc3)nc12 | inconclusive: 31.2% |
| Cc1cccn2c(CNC3CCCc4ccccc43)c(C(=O)N3CCCCC3)nc12 (centres undefined) | inactive: 7.71% |
| O=C(N/N=C\c1cccnc1)c1ccc(Cl)cc1Cl | inconclusive: 30.6% |
| CC(C)Sc1nnc(NC(=O)c2ccc3c(c2)OCO3)s1 | inconclusive: 69.3% |
| Cc1ccc(C(C)NC(=S)NCc2ccc(F)cc2)c(C)c1 (centres undefined) | inconclusive: 71.6% |
| O=C(Nc1cccc(-n2cnnn2)c1)c1cc(Cl)ccc1Cl | inconclusive: 31.6% |
| CN(CCC1CCOCC1)C(=O)c1cc(COc2c(F)cccc2F)on1 | inconclusive: 31.5% |
| CN(c1ccccc1)S(=O)(=O)c1cc(C(=O)N2CCN(c3ccccn3)CC2)ccc1Cl | inactive: 2.23% |
| Cc1ccc(C2N(c3ccccc3)C(=S)N3CCCN23)cc1 (centres undefined) | inactive: 2.84% |
| CCOc1ccccc1/C=N/Nc1cc(C)nc2ccc(C)cc12 | inactive: 6.18% |
| Cc1ccnc(NC(=O)c2cc3ccccc3o2)c1 | inconclusive: 70.3% |
| COc1cccc(C(=O)NC2CC3CCCC(C2)N3Cc2ccc(C)cc2)c1 (centres undefined) | inactive: 2.39% |
